PubChem BioAssay AID504791 | Drosophila RNAi Screening Center, 2011

Screen: 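Factors in Argonaute-based small RNA production and activity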 (primary screen)
Cell system: Drosophila S2-derived reporter cells
Knock-down reagent: long dsRNA against Drosophila genes, about 150-250 ng dsRNA per well (siRNA assay); about 80-120 ng (miRNA assay)
Time to read-out: about 5 days (siRNA assay); about 4 days (miRNA assay)
Challenge: copper sulfate induction of reporters: 25 µM (siRNA assay); 200 mM stated (miRNA assay), 1-2 days before reading
Detection: 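Per-well ratio of Renilla over firefly light, expressed relative to that plate's average ratio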
Units: stable assay Renilla, run 1 in luminescence; stable assay firefly, run 1 in luminescence
Rule for the call: 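First-pass picks had plate-scaled ratios over 1.5 for the siRNA assay, over 1.6 for the miRNA assay, or under 0.6; two distinct dsRNAs had to score alike on retest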
The screen tested about 23,000 reagents; this is an unselected part of those with a known target gene and a result. In the full data, 199 (0.86%) are marked active. 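Plate-scaled ratios behind the calls are not deposited; printed light signals are raw; many rows marked increased or decreased are still called inactive.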 Names joined by + are all predicted targets of the reagent. Not given: the direction of the score.

uno (GeneID 35778) [DRSC07244] showed stable assay Renilla, run 1 = 6191; stable assay firefly, run 1 = 3.74e5; inactive.
Knock-down of CG31697 (GeneID 35243) [DRSC22273] came out at: stable assay Renilla, run 1 = 9722; stable assay firefly, run 1 = 6.77e5; inactive.
Silencing of CG31344 (GeneID 41835) [DRSC16069] resulted in: stable assay Renilla, run 1 = 7027; stable assay firefly, run 1 = 3.86e5; inactive.
Silencing of CG32457 (GeneID 318040) [DRSC11596] came out at: stable assay Renilla, run 1 = 4907; stable assay firefly, run 1 = 3.36e5; inactive.
Silencing of CG32457 (GeneID 318040) [DRSC21722] resulted in: stable assay Renilla, run 1 = 9064; stable assay firefly, run 1 = 6.64e5; inactive.
After knock-down of CG15728 (GeneID 32214) [DRSC19694], the screen gave stable assay Renilla, run 1 = 5199; stable assay firefly, run 1 = 4.56e5; inactive.
Against CG15728 (GeneID 32214) [DRSC22868] the deposit lists stable assay Renilla, run 1 = 5602; stable assay firefly, run 1 = 5.06e5; inactive.
Silencing of Surf4 (GeneID 41864) [DRSC16875] resulted in: stable assay Renilla, run 1 = 7227; stable assay firefly, run 1 = 2.81e5; inactive.
Hexim (GeneID 41778) [DRSC15490] showed stable assay Renilla, run 1 = 8399; stable assay firefly, run 1 = 4.63e5; inactive.
After knock-down of CG15210 (GeneID 50323) [DRSC19656], the screen gave stable assay Renilla, run 1 = 6491; stable assay firefly, run 1 = 5.22e5; inactive.
Silencing of CG33695 + cana [DRSC01163] gave: stable assay Renilla, run 1 = 5082; stable assay firefly, run 1 = 5.43e5; inactive.
CG33695 + cana [DRSC03503] scored stable assay Renilla, run 1 = 6674; stable assay firefly, run 1 = 3.57e5; inactive.
prd1 (GeneID 41425) [DRSC15227] scored stable assay Renilla, run 1 = 5096; stable assay firefly, run 1 = 2.93e5; inactive.
Ugt49B2 (GeneID 42538) [DRSC16049] scored stable assay Renilla, run 1 = 8455; stable assay firefly, run 1 = 4.05e5; inactive.
emc (GeneID 38091) [DRSC08715] showed stable assay Renilla, run 1 = 4275; stable assay firefly, run 1 = 3.57e5; inactive.
Against emc (GeneID 38091) [DRSC23238], the values are stable assay Renilla, run 1 = 4271; stable assay firefly, run 1 = 2.81e5; inactive.
Knock-down of ppk15 (GeneID 43188) [DRSC14733] resulted in: stable assay Renilla, run 1 = 8711; stable assay firefly, run 1 = 4.06e5; inactive.
Silencing of Tcs3 (GeneID 39811) [DRSC10461] came out at: stable assay Renilla, run 1 = 7114; stable assay firefly, run 1 = 4.07e5; inactive.
Knock-down of so (GeneID 35662) [DRSC07693] resulted in: stable assay Renilla, run 1 = 26742; stable assay firefly, run 1 = 2.13e6; inactive.
so (GeneID 35662) [DRSC23096] gave stable assay Renilla, run 1 = 3527; stable assay firefly, run 1 = 2.44e5; inactive.

Targets listed so far whose gene name starts with U or u (2):
uno (GeneID 35778) [DRSC07244] | stable assay Renilla, run 1: 6191; stable assay firefly, run 1: 3.74e5; call: inactive
Ugt49B2 (GeneID 42538) [DRSC16049] | stable assay Renilla, run 1: 8455; stable assay firefly, run 1: 4.05e5; call: inactive
